Laboratory results published in patent US4703039A, “Method of producing biologically active molecules having extended life time” (New England Deaconess Hospital Corporation, priority 1985, dated 1987).
At least one peptide structure holds a part that was inferred or is arguable (an end, a ring closure or a residue). Ends that are not written are not given here.

System: ADP-modified human platelet receptor site for fibrinogen
Assay: Inhibition of 125I-fibrinogen binding to ADP-treated human platelets
Conditions: effect of changed hydrophobicity, FIG. 9
Description: FIG. 3 is a graph showing that the inhibitory effect of the same conjugate is concentration dependent. In this experiment, human platelets were treated with ADP and a variety of concentrations of the conjugate were added to affect inhibition of ^125 I-fibrinogen binding to the platelets. As the concentration of the conjugate increases, inhibition of binding goes from 0 to almost 100%, showing the effectiveness of the conjugate.

HHLQLLKQLLDV [peptide 7]
relative effectiveness in inhibiting fibrinogen binding: peptide 8, is much more effective in inhibition than peptide 7
